{"sequences": {"note": "The chains behind the UniProt entries cited, without tags or fusion partners. Where a name states a change or a piece, a line headed by the entry shows the natural chain unless it says otherwise.", "UniProt B6D1Q5": "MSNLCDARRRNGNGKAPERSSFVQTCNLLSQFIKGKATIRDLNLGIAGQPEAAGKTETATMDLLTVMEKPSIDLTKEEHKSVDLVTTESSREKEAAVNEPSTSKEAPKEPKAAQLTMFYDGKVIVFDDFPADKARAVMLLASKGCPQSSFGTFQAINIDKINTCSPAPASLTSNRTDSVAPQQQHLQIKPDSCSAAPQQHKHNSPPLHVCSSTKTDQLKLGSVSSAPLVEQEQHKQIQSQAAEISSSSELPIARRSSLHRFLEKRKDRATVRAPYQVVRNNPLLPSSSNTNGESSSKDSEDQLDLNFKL"}, "source": "paper PMC10008303", "molecules": {"B1": {"name": "His-tagged JAZ7 (protein, UniProt Q9M723 1-228)", "chain": "MDSRMEIDFMDLNSKPKLSEMEKQHKKVSGMKWPFSLADLATHHEHTFFQNYKSTPIVSINSKNSSLNNYKSTIDPQYFRGTFPLLAKTSTYDSRKNYDNLSPNESTLTIFYMGEVHIFPGISPEKAELIIDLVSKSTTLHMDEILEKVMNKEKYEENKSDPSNASTNYAKGALAMARRATLARFLEKRKHRLIKARPYLYGENLSKFPFDIQQQEEETASSSVHWEN"}}, "key": {"[1]": {"target": "Fls2/Fls3 interacting RLCK 1 (Fir1) fused to the C-terminal fragment of luciferase (tomato (Solanum lycopersicum))", "assay": "split reporter; split-luciferase complementation; C-LUC-Fir1 co-expressed with N-LUC fusions via A. tumefaciens in N. benthamiana leaves; relative luminescence of leaf discs at 48 h after agro-infiltration"}, "[2]": {"target": "Fir1 fused to the glutathione-S-transferase (GST) protein (tomato (Solanum lycopersicum))", "assay": "pull-down; GST-Fir1 bound to glutathione resin, incubated overnight with lysates of E. coli cells expressing His-JAZ3 or His-JAZ7, washed; eluted proteins blotted with anti-His antibodies; only the target purified"}}, "note": "Results are given in words; binding and its absence hold for the method and conditions named. Binding seen in cells or lysates may run through a third protein. For some assays here: A result given as binding can be weak or reduced; the word gives no strength. For some assays here: Tags and fused reporters may be left off the sequences shown.", "data": [{"molecule": "JASMONATE-ZIM-DOMAIN PROTEIN 3 (JAZ3) fused to the N-terminal fragment of luciferase (from UniProt B6D1Q5)", "values": [{"measurement": "binding", "setting": "[1]", "result": "binds"}]}, {"molecule": "B1", "values": [{"measurement": "binding", "setting": "[2]", "result": "no binding"}]}]}
